Laboratory results from paper doi:10.1101/483925.
The exact form of at least one protein or probe is not confirmed. At least one verdict was read from the data and is not stated in words by the source.

What was measured:
Assay in all cases: EMSA
Conditions in all cases: higher order complex
[1] = test system: FD full-length + 14-3-3nu (GRF7) + TFL1
[2] = test system: FD T282E full-length + 14-3-3nu (GRF7) + FT
[3] = test system: FD T282E full-length + 14-3-3nu (GRF7) + TFL1

Measured: binding result

CGAGATGTCGACACGTGTCCAAACTCAT (double strand) [SEP3 promoter G-box probe]
binds: all assays above
